Source: patent US20120277144A1
No constants are given. Whether binding was seen depends on the method and setting. Binding seen in cells or lysates may run through a third protein. Some binding calls cover weakened binding; strength is not graded here.

Protein sequences, listed by entry. Tags and fused reporters are not part of them. Residues count along the entry.
UniProt P60953, residues 1-188: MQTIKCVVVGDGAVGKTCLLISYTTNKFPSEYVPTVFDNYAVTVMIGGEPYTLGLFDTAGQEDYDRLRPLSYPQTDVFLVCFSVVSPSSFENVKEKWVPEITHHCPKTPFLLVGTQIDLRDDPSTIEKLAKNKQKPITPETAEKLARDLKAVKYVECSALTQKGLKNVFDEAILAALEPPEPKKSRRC
UniProt Q6ZNL6: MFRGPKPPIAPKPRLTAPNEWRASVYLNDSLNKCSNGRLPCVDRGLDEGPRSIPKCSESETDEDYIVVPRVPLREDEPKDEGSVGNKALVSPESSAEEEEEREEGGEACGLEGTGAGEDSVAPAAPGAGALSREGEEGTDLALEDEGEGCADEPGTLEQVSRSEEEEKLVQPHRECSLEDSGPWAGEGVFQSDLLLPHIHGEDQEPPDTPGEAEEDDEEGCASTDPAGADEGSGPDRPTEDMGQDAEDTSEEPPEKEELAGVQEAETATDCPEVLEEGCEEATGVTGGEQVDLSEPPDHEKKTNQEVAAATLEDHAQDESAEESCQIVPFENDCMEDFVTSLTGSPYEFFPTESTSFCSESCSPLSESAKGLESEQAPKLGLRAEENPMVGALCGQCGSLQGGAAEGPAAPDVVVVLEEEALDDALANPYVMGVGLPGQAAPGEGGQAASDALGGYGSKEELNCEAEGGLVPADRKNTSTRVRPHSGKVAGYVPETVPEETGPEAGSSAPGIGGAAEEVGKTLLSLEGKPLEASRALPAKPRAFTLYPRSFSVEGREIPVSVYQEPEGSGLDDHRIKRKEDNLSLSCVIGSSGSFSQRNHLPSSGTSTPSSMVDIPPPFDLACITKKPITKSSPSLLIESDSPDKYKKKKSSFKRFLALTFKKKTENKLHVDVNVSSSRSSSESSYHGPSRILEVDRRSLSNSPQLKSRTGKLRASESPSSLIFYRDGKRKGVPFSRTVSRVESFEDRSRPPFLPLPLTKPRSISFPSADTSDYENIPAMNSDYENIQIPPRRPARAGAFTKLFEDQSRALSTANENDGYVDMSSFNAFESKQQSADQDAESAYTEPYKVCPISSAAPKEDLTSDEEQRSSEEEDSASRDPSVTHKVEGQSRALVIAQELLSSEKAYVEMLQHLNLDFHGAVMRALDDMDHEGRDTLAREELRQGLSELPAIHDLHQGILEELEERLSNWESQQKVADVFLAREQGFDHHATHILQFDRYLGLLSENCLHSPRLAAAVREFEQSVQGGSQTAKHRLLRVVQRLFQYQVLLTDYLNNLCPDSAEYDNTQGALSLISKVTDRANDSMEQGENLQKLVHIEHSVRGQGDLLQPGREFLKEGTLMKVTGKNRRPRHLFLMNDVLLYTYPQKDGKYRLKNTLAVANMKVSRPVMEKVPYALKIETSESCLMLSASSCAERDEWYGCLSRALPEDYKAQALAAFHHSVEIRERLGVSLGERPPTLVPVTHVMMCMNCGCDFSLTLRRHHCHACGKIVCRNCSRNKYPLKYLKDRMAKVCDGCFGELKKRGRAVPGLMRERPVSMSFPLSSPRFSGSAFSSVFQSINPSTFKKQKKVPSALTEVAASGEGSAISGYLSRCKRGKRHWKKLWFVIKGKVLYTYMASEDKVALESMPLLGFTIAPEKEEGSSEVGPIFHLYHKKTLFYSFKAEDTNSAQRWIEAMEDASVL

Molecular target: cdc42 (human) (UniProt P60953)
Experiment: co-immunoprecipitation with anti-FGD5 antibody from lysates of FGD5 overexpressing HUVECs, western blot

Substance: FYVE, RhoGEF and PH domain-containing 5 (FGD5) (from UniProt Q6ZNL6 1-1462) (enzyme)
- binding: binds
